Values from PubChem BioAssay AID1224830 (NIAID, 2016).

- Purpose: 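Regulators of TLR4 signalling towards TNF-alpha in macrophage-like cells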 (primary screen)
- Cell system: human THP-1 monocytic leukaemia cells, TNF dual-luciferase reporter clone, PMA-differentiated to macrophage-like cells
- Reagent: siRNA pool against human genes, 50 nM
- Timing: LPS for 4 h, given about 3 days after siRNA transfection
- Challenge: bacterial LPS (TLR4 ligand), 10 ng/ml
- Measured: 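TNF firefly reporter luminescence divided by renilla, normalised to the plate median, then turned into a robust z-score for each replicate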
- Direction: TNF reporter robust z-score: higher = stronger TNF reporter response to LPS
- Call rule: 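a well is active when its z-score exceeds 2.8 or falls below -1.5; control wells carry no call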
In all, the deposit lists about 18,000 reagents; this is a part drawn at random. Of all reagents, about 2,900 (16%) were called active. 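Calls are made per well; low scores hint the gene aids the LPS response, high scores that it dampens it.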 Repeated entries: four replicate wells of each siRNA pool.

| Target gene | PubChem SID | TNF reporter robust z-score | outcome |
| --- | --- | --- | --- |
| EIF2S1 | SID315448468 | -1.39 | inactive |
| EIF2S1 | SID315448468 | -1.55 | active |
| EIF2S1 | SID315448468 | -1.35 | inactive |
| EIF2S1 | SID315448468 | -0.74 | inactive |
| WNT3 | SID315452143 | -0.02 | inactive |
| WNT3 | SID315452143 | 1.05 | inactive |
| WNT3 | SID315452143 | 2.03 | inactive |
| WNT3 | SID315452143 | 1.93 | inactive |
| MITD1 | SID315461835 | -0.18 | inactive |
| MITD1 | SID315461835 | 3.45 | active |
| MITD1 | SID315461835 | 3.77 | active |
| MITD1 | SID315461835 | 1.41 | inactive |
| SHMT2 | SID315451419 | -1.39 | inactive |
| SHMT2 | SID315451419 | -0.25 | inactive |
| SHMT2 | SID315451419 | -0.17 | inactive |
| SHMT2 | SID315451419 | -0.43 | inactive |
| LNPK | SID315459832 | 0.29 | inactive |
| LNPK | SID315459832 | -0.96 | inactive |
| LNPK | SID315459832 | -0.12 | inactive |
| LNPK | SID315459832 | 0.83 | inactive |
| TSPAN16 | SID315455808 | -0.34 | inactive |
| TSPAN16 | SID315455808 | 0.76 | inactive |
| TSPAN16 | SID315455808 | 0.52 | inactive |
| TSPAN16 | SID315455808 | 0.29 | inactive |
| LDLRAD2 | SID315464806 | -1.25 | inactive |
| LDLRAD2 | SID315464806 | -1.17 | inactive |
| LDLRAD2 | SID315464806 | -1.04 | inactive |
| LDLRAD2 | SID315464806 | -1.75 | active |
| ALDOA | SID315447276 | -1.34 | inactive |
| ALDOA | SID315447276 | -1.62 | active |
| ALDOA | SID315447276 | -1.86 | active |
| ALDOA | SID315447276 | -1.79 | active |
| MOGAT2 | SID315459678 | 0.86 | inactive |
| MOGAT2 | SID315459678 | 0.25 | inactive |
| MOGAT2 | SID315459678 | -1.17 | inactive |
| MOGAT2 | SID315459678 | 0.54 | inactive |
| TPT1 | SID315451961 | -0.15 | inactive |
| TPT1 | SID315451961 | 0.34 | inactive |
| TPT1 | SID315451961 | -0.51 | inactive |
| TPT1 | SID315451961 | -0.12 | inactive |
| IL17D | SID315456907 | 3.02 | active |
| IL17D | SID315456907 | 3.1 | active |
| IL17D | SID315456907 | 1.24 | inactive |
| IL17D | SID315456907 | 2.27 | inactive |
| PLCB4 | SID315450625 | -1.23 | inactive |
| PLCB4 | SID315450625 | -1.4 | inactive |
| PLCB4 | SID315450625 | -1.64 | active |
| PLCB4 | SID315450625 | -1.19 | inactive |
| ARHGAP5 | SID315447398 | -1.64 | active |
| ARHGAP5 | SID315447398 | -0.82 | inactive |
| ARHGAP5 | SID315447398 | -1.38 | inactive |
| ARHGAP5 | SID315447398 | -0.12 | inactive |
| SNX11 | SID315456214 | 2.81 | active |
| SNX11 | SID315456214 | 1.51 | inactive |
| SNX11 | SID315456214 | -0.75 | inactive |
| SNX11 | SID315456214 | -0.61 | inactive |
| TPRG1L | SID315461747 | 0.03 | inactive |
| TPRG1L | SID315461747 | -0.82 | inactive |
| TPRG1L | SID315461747 | -0.68 | inactive |
| TPRG1L | SID315461747 | -1.13 | inactive |
| TXN | SID315452021 | 0.98 | inactive |
| TXN | SID315452021 | 0.02 | inactive |
| TXN | SID315452021 | -0.33 | inactive |
| TXN | SID315452021 | 0.34 | inactive |
| RHOV | SID315462928 | -0.39 | inactive |
| RHOV | SID315462928 | -0.9 | inactive |
| RHOV | SID315462928 | -1.3 | inactive |
| RHOV | SID315462928 | 0 | inactive |
| UBR2 | SID315455146 | -0.35 | inactive |
| UBR2 | SID315455146 | 0.09 | inactive |
| UBR2 | SID315455146 | 0.19 | inactive |
| NEIL3 | SID315457531 | 1.45 | inactive |
| NEIL3 | SID315457531 | 2.2 | inactive |
| NEIL3 | SID315457531 | 1.55 | inactive |
| NEIL3 | SID315457531 | 1.57 | inactive |
| ARHGAP33 | SID315461322 | -0.89 | inactive |
| ARHGAP33 | SID315461322 | -0.02 | inactive |
| ARHGAP33 | SID315461322 | -0.53 | inactive |
| ARHGAP33 | SID315461322 | -0.4 | inactive |
| MCF2 | SID315449907 | -0.58 | inactive |
| MCF2 | SID315449907 | 0.37 | inactive |
| MCF2 | SID315449907 | 0.6 | inactive |
| MCF2 | SID315449907 | -1.23 | inactive |
| TRIM51 | SID315460496 | 0.65 | inactive |
| TRIM51 | SID315460496 | -0.62 | inactive |
| TRIM51 | SID315460496 | 0.69 | inactive |
| TRIM51 | SID315460496 | 0.26 | inactive |
| SLC6A7 | SID315451473 | -0.2 | inactive |
| SLC6A7 | SID315451473 | -1.13 | inactive |
| SLC6A7 | SID315451473 | -0.02 | inactive |
| SLC6A7 | SID315451473 | -0.17 | inactive |
| FZD10 | SID315454688 | 0.04 | inactive |
| FZD10 | SID315454688 | 1.3 | inactive |
| FZD10 | SID315454688 | 0.72 | inactive |
| FZD10 | SID315454688 | 0.87 | inactive |
| KRT8 | SID315449692 | 2.24 | inactive |
| KRT8 | SID315449692 | 1.22 | inactive |
| KRT8 | SID315449692 | 1.53 | inactive |
| KRT8 | SID315449692 | 2 | inactive |
| EXOSC4 | SID315457050 | -1.02 | inactive |
| EXOSC4 | SID315457050 | -0.95 | inactive |
| EXOSC4 | SID315457050 | -0.81 | inactive |
| EXOSC4 | SID315457050 | -0.26 | inactive |
| TM4SF20 | SID315459514 | -0.4 | inactive |
| TM4SF20 | SID315459514 | 1.26 | inactive |
| TM4SF20 | SID315459514 | -0.81 | inactive |
| TM4SF20 | SID315459514 | -0.95 | inactive |
| IRF2BPL | SID315458863 | 0.22 | inactive |
| IRF2BPL | SID315458863 | 0.78 | inactive |
| IRF2BPL | SID315458863 | 0.23 | inactive |
| IRF2BPL | SID315458863 | -0.47 | inactive |
